Results are given in words; binding and its absence hold for the method and conditions named.
Columns and labels:
[1] = molecular target: human B7H4, full length, on cells (human) (UniProt Q7Z7D3); assay: flow cytometry on HCC1954 tumor cells [HCC1954 panels]
[2] = molecular target: human B7H4, full length, on cells (human) (UniProt Q7Z7D3); assay: flow cytometry, HEK cells transiently transfected with human B7H4 [panel B7H4]
[3] = molecular target: B7H3-IgV/B7H4-IgC; assay: flow cytometry, HEK cells transiently transfected with B7H3-IgV/B7H4-IgC [panel B7H3-IgV/B7H4-IgC]
[4] = molecular target: T1, B7H4-IgV/B7H3-IgC; assay: flow cytometry, HEK cells transiently transfected with B7H4-IgV/B7H3-IgC [panel B7H4-IgV/B7H3-IgC]
T1 sequence (full-length chimeric protein on cells): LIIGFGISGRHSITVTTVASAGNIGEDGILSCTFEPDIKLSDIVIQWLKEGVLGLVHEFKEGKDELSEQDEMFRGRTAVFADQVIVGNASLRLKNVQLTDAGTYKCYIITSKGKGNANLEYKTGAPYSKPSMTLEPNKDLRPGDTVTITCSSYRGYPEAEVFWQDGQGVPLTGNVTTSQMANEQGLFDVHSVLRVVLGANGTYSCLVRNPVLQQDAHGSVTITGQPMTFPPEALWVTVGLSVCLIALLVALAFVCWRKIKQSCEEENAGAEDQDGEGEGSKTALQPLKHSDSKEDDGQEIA

Measured: binding

B1: IgG1-b12-K409R (antibody, V domains shown)
VH: QVQLVQSGAEVKKPGASVKVSCQASGYRFSNFVIHWVRQAPGQRFEWMGWINPYNGNKEFSAKFQDRVTFTADTSANTAYMELRSLRSADTAVYYCARVGPYSWDDSPQDNYYMDVWGKGTTVIVSS
VL: EIVLTQSPGTLSLSPGERATFSCRSSHSIRSRRVAWYQHKPGQAPRLVIHGVSNRASGISDRFSGSGSGTDFTLTITRVEPEDFALYYCQVYGASSYTFGQGTKLERKR
no binding (tested: 30 µg/ml): [1] | [2] | [3] | [4]
